# Reference: PubChem BioAssay AID1508600 (Functional Genomics Laboratory (NCATS/FGL), 2020)
# About 3,700 (7%) of roughly 53,000 sequences were called active.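 The calls were made as follows: active = gene knockdowns whose robust z-score for IL-1 alpha signal is at least 2 or at most -2, so actives lie on both sides; inactive = the rest.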 The list shows a part of the results.
# Assay: Components of the Cytosolic LPS Sensing Pathway: Gene Identification via Genome-wide siRNA Screen;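 also: robust z of the log signal after scaling to non-targeting control siRNA wells of the plate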
# Conditions: RAW264.7 macrophages, IL-1a HTRF, actives lie on both sides, screened at 100 nM (by protocol), cells primed 5 h with Pam3CSK4 first
# Summary of the method: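 RAW264.7 mouse macrophages reverse-transfected with single siRNAs (100 nM final) for 48h, primed with Pam3CSK4 for 5 hours, then transfected with LipidA for 24 hour. Supernatant IL-1a read by HTRF; values normalized to negative-control median, log-transformed robust z-scores.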
row,Sequence,z-score
1,CCCUGUCAUCAUUGAUGGGTT against Bdh2,inactive: 1.12
2,GGUAGUUGUGCCAGAAAAATT against Garre1,inactive: 0.0675
3,GGAUAUACAAGCACAAACUTT against Gjc3,inactive: 0.432
4,GGAUCUAAUAAACCAAGUGTT against Slc25a10,inactive: 1.21
5,GGACGUACAUGAUGAUGUUTT against Gramd1b,inactive: 0.324
6,GGACAAGAGACUUCAUAGCTT against Grpel2,inactive: 0.534
7,GGGUUUGAAUGUUAUGACATT against Hhipl2,inactive: 0.0324
8,GGACACUUCCAAACUGACCTT against Tiparp,inactive: -1.43
9,GGUUGCACUACCUUCAUAUTT against Susd6,inactive: 0.238
10,GGGUUUAUCUUGAAGAAAATT against Cd48,inactive: 0.0374
11,GGAAAACUUUUCUGUCUGUTT against Dhx32,inactive: 0.93
12,GCAGCUAACAAAUGUCAGCTT against Popdc3,inactive: -0.566
13,GGACUAUAAAUGUAUUCUCTT against Tfpi2,inactive: -0.684
14,GCCAGAGUCAUCUACUUUUTT against Tmco4,inactive: -0.844
15,GCAUUAUCAACCGGAUUGATT against Gipc3,inactive: -0.0129
16,GCUUGAAUGGAGCGAAUCGTT against Chat,active: 4.86
17,GGGACCAGAACAAGGUAGUTT against Olfr488,inactive: 0.169
18,CGUGGUAUGGUAAUGAUACTT against Scn4a,inactive: 1.03
19,GGCGAAAGUAAGACAAAGUTT against Ric8a,inactive: 0.708
20,GCUUUAUCGCAGAAAAGGUTT against Nova2,inactive: 0.246
21,CCCUCAGAUGAUCUGUGCCTT against Prss50,inactive: -1.59
22,GGCUUUUAGCCAGAAAGAATT against Zfp260,inactive: 0.667

row,Sequence,z-score
1,GGUCAACUUUCUACAAAAGTT against Cep112,inactive: -1.37
2,CGAGAUUCUGCCUUUUCAGTT against Tfcp2,inactive: 1.84
3,GCUUCAGCUCUGAUUAACGTT against Alox8,inactive: -0.233
4,CCUUAUAUCUUGGUAUACGTT against Bmp3,inactive: -0.269
5,GCAGAUUGAGCCUGUCAAUTT against Ddx39a,inactive: -0.991
6,GGAUUGAGGGUCAAAUAACTT against Fkbp8,inactive: 0.289
7,GGAUAAUACAUCCCAAAACTT against Prkar2b,inactive: -0.607
8,CGAUCUGACAACUGAUAAGTT against Rad17,inactive: 0.729
9,GGGAGAACAGCGACAAACATT against Cbfb,inactive: 1.82
10,CCUUAACUGGCACAAUUGCTT against Igha,inactive: 0.72
11,CCCUCAAAACCUAUGCCUUTT against Ugt1a2,inactive: 0.715
12,GCAACCUGUCAUUUUGUGATT against Olfr1134,inactive: -1.74
13,GCACAAGGACACGGAAUACTT against Npr3,inactive: -1.28
14,GGAAGUUUCUGAGACUGUATT against Epx,inactive: -0.442
15,GCCUUGUUACAAAUAGUCGTT against Tcf12,inactive: 0.266
16,GGGAAGAAAAAGAGCAUAUTT against Dis3l2,inactive: 1.4
17,GGAACACAGAGGUAAAAGGTT against Olfr446,active: -2.66
18,GGUUGUUCUUGUCAGUAUUTT against Serpinb6c,inactive: 1.67
19,GGUGUGACAUUGACCAUAGTT against Stil,inactive: -0.0547
20,CCUGAUCUCUUGCUACACCTT against Trpm3,inactive: -0.0238
21,CGGAUAACAAAAGUAGCAATT against Trp53rka,inactive: 0.276
22,GGCUAAGAACUCUAAGAAATT against Palb2,inactive: -0.269

row,Sequence,z-score
1,GCGCAUUGUGUUCUGGUCUTT against Zswim4,inactive: -1.55
2,GGAGGAUUAGAACGGACCUTT against Nop56,inactive: 0.588
3,GUAAAUACACCCAAACUGATT against Olfr1281,inactive: -1.1
4,GCACAUCUCAUGAAGGAGGTT against Ppp3ca,inactive: -1.77
5,GGGUUUGUGGCUUCUUUUCTT against Ucp1,inactive: 0.849
6,GGGUAACUGGUUUGUAUGATT against Gm4814,inactive: 1.34
7,CCCGCUGAGAUACUCUGUATT against Olfr1395,inactive: -1.12
8,GCCAUUUAUUCGUCUCUUCTT against Tcaf1,inactive: 0.331
9,GGUGGAGAUCCGAAAGCAUTT against Ltk,inactive: 0.597
10,GCGAAUCUCCUCCUAGUGATT against Arhgap28,inactive: -0.0218
11,GGAAAGCAUCUGCAUUAAATT against Mrpl18,inactive: -0.466
12,GCCAUUAGUGUGGAGUACUTT against Mrgprb8,inactive: 0.294
13,GGACCAUAAAGUGUUACUATT against Tnrc6b,inactive: 0.526
14,CGCAUCAUCAAUGAUGACCTT against Crmp1,inactive: -1.32
15,GGAUAGAGAUGGUUGUCCATT against Phf5a,inactive: -0.79
16,CCUUACCGCCUUAAACUGATT against Mylip,inactive: 0.584
17,GGUGAUACGUAUUUUUUAGTT against Pan3,inactive: -1.09
18,GCCUGAACUUUGACAGAACTT against Cxcr3,inactive: 0.538
19,GGGUUUCUUCAUAACUCUUTT against Rasal2,inactive: 0.92
20,GGACAACUCGAGUCUUAAATT against Poln,inactive: 1
21,GGUUUAACAACUUACUUUCTT against Dmgdh,inactive: -0.26
22,GACGCAGAAAUGGUUUAAGTT against Hopx,inactive: 0.213

# Some of the entries above, reformatted.
row	Sequence	z-score
2	GGUAGUUGUGCCAGAAAAATT against Garre1	inactive: 0.0675
13	GGACCAUAAAGUGUUACUATT against Tnrc6b	inactive: 0.526

# Next part:

row,Sequence,z-score
1,GGGAAAAACACCAUUUCCUTT against Olfr275,inactive: 0.619
2,GCAUUGGGUUUAUCAGCAUTT against Pimreg,inactive: 0.284
3,GGAAGAGAAGAUUUUGGAUTT against Il1f9,inactive: 0.805
4,GGGAUGUGUCUAAUGACUCTT against Zfp677,inactive: 0.0909
5,GGAAAAUGUGAAACAGCUATT against Dhx40,inactive: -0.873
6,GGAAGGAAAUAAAAAGGGATT against Pcdhb20,inactive: 0.359
7,GGUCAGAAAAAAGUGUAUUTT against Dennd6a,inactive: 0.523
8,UAUUUAUCCACUACUGGAATT against Olfr969,inactive: 0.0334
9,GGAGGUCUUUUCAGAAUAATT against Timmdc1,inactive: 1.68
10,GCAGGAACAGCCUAAGAGATT against Tdp1,inactive: 0.358
11,GGGACCCUUCUACAAAAACTT against Pias3,inactive: 0.283
12,GCAACUUAAAGGCAUCUCCTT against Sntn,inactive: 1.53
13,GGCAUUCAAGGAUAUGCUGTT against Xpr1,inactive: -1.1
14,GAUCAAAGCGGCGUACUACTT against Dnajc30,inactive: 0.738
15,GCUUGUCCAAGUUAGGCGATT against Calm4,inactive: 0.294
16,GGCCAUACGCAAGCUCAAGTT against Rtl5,active: -2.96
17,GUGUCCAGUCCUAAAACGATT against Trib3,inactive: 1.66
18,GGCUUUAAGCUGGUGAUGGTT against Hmox1,inactive: -0.225
19,CCCAGAAAUAAUAGGGUCGTT against N4bp2l2,inactive: 0.908
20,GGUCUUCAGAUAAUCUUCCTT against Brinp1,inactive: 1.91
21,GGACCGGUGUAAGCUUCGATT against Hinfp,active: 2.05
22,GGAGAUUAACAAGUGGUGGTT against Parl,inactive: -0.426

row,Sequence,z-score
1,GGUGGUUGCCUUUAUGAAGTT against Tmem159,inactive: 0.664
2,GGCUCCAACCAACAUUGUUTT against Rpa2,inactive: -0.363
3,CGUGAGCACAAAAAUAUUGTT against Fchsd2,inactive: -0.251
4,GGGAAGAACAAAUGGUUUUTT against Rpl27,inactive: -0.126
5,CCAAGUCUGAUCUUUUGUATT against Clec16a,inactive: -0.153
6,GCAUUUGAAAUGCUACAGCTT against Rhoq,inactive: 0.206
7,CCGUAUAUUGACCUAAUGGTT against Ppp2ca,inactive: -0.0183
8,GCUGCUCGUUAAAGCCGGATT against Ankrd6,active: 2.92
9,GCUGCAUGUUACCUACUUGTT against Pold3,inactive: 1.34
10,GCAGUGAAUGGACUCGAGATT against Pax1,inactive: -0.509
11,GCUUAUGAGUUCAGUUGUGTT against Olfr143,inactive: 0.00489
12,GUGUCAUCAUGCCCAAAAUTT against Olfr957,inactive: 0.0653
13,GGCCAGACCCGAACUUUGATT against Rnf2,inactive: -0.306
14,GGCUCGUUUAAACAACAUATT against Tmem106b,inactive: -0.442
15,GGCAACUCUCAAUUGCACATT against Olfr1325,inactive: 1.45
16,GCUCAUAAGUUUCUAAGGATT against Rab22a,inactive: -0.975
17,CCUAACAACCGCUCUUGUGTT against Efemp2,inactive: -1.75
18,CGAAGGUCUGUUCGAGAACTT against Morn4,inactive: 0.668
19,GGAUGAGGCCAUCCUCAAGTT against Rps6ka1,inactive: -0.64

# An excerpt of these results, bar-delimited.
row | Sequence | z-score
1 | GGUGGUUGCCUUUAUGAAGTT against Tmem159 | inactive: 0.664
4 | GGGAAGAACAAAUGGUUUUTT against Rpl27 | inactive: -0.126
10 | GCAGUGAAUGGACUCGAGATT against Pax1 | inactive: -0.509
